According to publication PMC13039550:
No constants are given. Whether binding was seen depends on the method and setting. In cells and extracts the contact can be indirect. Some results given as binding are weak or reduced against the parent protein; the word gives no strength.

Chains of the proteins cited; added tags and fusions are not shown.
UniProt P46152: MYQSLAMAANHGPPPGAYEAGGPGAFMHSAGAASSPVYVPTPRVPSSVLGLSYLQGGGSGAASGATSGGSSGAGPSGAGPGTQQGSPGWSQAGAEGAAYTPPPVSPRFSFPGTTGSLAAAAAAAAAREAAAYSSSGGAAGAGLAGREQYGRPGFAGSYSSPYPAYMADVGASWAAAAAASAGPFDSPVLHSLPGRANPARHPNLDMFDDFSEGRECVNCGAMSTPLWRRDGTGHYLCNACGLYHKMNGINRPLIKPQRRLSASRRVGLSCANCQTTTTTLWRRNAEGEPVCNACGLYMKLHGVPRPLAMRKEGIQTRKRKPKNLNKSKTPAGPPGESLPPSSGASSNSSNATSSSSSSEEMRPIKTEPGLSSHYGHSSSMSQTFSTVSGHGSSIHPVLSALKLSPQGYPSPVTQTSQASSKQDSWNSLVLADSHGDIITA

Target: T1, SIRT1 (sirtuin 1) (rat (endogenous in primary neonatal rat cardiomyocytes))
T1 sequence: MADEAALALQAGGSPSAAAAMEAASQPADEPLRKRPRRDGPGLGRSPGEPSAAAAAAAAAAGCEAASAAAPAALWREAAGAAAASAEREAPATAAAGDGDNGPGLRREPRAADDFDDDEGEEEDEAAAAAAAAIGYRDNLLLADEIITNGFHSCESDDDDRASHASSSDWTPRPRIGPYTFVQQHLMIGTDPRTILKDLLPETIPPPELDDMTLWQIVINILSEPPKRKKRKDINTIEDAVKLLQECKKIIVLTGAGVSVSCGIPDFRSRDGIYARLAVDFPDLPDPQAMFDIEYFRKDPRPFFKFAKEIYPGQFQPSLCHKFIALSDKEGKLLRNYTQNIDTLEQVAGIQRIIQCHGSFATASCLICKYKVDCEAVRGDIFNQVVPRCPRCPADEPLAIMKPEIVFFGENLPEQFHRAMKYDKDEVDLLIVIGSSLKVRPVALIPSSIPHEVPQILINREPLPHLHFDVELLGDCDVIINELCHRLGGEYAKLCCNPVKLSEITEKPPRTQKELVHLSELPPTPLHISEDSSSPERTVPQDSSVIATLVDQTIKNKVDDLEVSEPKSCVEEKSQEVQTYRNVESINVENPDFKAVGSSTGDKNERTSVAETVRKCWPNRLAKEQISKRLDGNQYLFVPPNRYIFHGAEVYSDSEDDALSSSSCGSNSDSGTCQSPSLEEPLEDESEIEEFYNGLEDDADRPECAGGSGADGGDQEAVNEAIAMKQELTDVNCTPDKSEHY
Assay: co-IP; cardiomyocyte lysates (cells transfected with negative control or si-SIRT1) precipitated with anti-SIRT1 antibody overnight at 4 °C, protein A/G magnetic beads, three washes with lysis buffer; immunoblot for SIRT1 and GATA4

binding: binds
Substance: GATA4 (from UniProt P46152 1-440)
